Experimental data published in publication doi:10.1101/701953.
No constants are given. Whether binding was seen depends on the method and setting. In cells and extracts the contact can be indirect. Some results given as binding are weak or reduced against the parent protein; the word gives no strength.

By UniProt entry, the sequences of proteins in these tests, tags left out. Where a name states a change or a piece, a line headed by the entry shows the natural chain unless it says otherwise.
UniProt Q13315: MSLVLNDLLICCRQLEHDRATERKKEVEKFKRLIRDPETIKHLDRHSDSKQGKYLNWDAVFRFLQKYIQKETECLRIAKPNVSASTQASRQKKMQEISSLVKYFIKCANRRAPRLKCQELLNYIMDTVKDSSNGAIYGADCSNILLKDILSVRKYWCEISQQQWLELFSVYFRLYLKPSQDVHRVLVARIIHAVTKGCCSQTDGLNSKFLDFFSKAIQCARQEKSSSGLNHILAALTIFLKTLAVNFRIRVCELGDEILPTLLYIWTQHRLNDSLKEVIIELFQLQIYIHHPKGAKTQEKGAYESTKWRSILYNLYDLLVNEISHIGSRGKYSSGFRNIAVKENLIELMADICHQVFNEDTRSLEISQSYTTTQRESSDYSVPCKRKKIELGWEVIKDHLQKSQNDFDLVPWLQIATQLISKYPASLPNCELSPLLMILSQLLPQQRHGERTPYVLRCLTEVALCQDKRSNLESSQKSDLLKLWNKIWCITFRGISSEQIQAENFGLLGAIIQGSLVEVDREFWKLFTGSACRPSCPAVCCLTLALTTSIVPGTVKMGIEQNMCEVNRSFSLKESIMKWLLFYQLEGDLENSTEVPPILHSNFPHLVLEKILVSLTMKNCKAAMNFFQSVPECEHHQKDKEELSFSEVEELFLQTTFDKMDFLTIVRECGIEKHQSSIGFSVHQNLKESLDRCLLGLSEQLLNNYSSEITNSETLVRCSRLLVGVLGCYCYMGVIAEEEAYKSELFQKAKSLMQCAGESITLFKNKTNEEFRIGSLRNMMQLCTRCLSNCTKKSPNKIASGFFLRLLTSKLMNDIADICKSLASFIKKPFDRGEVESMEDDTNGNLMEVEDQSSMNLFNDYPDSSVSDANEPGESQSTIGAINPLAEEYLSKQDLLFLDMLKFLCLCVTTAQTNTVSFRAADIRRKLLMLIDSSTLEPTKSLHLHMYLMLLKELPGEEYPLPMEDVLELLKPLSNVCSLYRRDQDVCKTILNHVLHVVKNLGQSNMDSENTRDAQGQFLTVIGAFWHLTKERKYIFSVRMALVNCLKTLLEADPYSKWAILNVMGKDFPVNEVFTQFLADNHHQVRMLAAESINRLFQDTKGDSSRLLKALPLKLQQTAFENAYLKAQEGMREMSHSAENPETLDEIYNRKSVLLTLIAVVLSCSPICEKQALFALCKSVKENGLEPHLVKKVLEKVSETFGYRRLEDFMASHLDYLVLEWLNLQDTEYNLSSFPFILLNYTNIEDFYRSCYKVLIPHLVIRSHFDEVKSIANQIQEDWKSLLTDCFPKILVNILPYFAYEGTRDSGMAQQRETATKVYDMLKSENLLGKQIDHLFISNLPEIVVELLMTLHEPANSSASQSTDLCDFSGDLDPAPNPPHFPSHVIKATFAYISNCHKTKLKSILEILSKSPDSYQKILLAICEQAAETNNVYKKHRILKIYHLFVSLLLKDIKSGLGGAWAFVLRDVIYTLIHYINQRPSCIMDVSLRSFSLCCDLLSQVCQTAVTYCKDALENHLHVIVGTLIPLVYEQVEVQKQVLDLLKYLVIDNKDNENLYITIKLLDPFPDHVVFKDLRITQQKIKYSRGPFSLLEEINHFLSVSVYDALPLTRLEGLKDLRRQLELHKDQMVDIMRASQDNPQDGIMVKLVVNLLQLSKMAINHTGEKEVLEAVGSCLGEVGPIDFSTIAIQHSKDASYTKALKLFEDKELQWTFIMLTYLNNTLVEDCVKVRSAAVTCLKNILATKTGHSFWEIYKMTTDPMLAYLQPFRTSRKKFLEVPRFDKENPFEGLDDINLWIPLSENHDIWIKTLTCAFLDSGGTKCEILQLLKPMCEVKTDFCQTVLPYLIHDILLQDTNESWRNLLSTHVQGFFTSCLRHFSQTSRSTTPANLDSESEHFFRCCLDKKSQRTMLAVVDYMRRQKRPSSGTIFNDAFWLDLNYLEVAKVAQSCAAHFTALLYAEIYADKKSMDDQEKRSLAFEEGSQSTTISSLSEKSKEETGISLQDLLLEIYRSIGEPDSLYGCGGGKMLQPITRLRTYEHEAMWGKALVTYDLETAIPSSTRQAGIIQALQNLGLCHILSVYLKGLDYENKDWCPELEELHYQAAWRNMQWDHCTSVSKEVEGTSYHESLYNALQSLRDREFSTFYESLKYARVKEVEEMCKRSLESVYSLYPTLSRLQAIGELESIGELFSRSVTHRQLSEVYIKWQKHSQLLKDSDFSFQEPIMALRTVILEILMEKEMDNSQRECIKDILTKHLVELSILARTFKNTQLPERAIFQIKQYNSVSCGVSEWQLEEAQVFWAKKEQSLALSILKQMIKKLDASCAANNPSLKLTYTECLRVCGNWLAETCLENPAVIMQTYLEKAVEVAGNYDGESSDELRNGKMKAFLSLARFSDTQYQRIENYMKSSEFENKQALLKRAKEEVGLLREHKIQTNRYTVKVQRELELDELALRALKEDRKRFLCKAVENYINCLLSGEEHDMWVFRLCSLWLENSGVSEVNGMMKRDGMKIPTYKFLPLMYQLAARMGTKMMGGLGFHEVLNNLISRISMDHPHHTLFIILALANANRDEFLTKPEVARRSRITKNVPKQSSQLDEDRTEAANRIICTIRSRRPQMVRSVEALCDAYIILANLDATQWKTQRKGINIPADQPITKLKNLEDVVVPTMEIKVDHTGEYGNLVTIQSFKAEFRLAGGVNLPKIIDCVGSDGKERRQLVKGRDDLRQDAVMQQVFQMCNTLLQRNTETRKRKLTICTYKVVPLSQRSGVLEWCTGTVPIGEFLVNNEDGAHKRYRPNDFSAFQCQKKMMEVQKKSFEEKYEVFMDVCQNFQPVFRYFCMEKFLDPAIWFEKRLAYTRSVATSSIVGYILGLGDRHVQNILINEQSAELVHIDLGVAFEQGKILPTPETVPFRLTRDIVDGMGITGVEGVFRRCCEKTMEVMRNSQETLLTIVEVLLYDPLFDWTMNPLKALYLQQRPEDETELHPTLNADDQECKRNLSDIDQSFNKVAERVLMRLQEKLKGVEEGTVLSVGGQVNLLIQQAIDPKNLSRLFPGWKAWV
UniProt P54253: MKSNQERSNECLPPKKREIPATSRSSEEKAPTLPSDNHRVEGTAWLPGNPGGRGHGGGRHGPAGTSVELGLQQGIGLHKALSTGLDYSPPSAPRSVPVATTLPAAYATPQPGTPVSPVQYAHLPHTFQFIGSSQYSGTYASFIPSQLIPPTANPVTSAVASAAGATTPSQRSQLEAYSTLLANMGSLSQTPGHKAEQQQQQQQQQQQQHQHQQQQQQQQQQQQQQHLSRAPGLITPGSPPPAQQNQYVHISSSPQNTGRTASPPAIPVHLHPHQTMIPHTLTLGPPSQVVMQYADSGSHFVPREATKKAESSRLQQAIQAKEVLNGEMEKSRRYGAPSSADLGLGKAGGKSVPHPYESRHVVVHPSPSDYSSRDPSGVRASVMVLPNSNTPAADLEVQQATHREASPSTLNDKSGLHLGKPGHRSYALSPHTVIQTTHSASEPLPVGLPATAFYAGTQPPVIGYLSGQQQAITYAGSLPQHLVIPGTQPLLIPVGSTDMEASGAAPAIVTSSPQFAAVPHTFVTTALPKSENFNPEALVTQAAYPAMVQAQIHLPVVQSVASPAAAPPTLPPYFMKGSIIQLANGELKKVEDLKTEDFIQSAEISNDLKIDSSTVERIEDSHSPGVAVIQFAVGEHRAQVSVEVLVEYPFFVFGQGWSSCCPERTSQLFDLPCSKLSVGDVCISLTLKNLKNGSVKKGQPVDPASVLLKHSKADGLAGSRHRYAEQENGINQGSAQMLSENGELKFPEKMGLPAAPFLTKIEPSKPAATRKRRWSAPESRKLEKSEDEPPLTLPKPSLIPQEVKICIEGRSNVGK

Target: ataxia telangiectasia mutated (ATM) kinase (human (endogenous in RPE1)) (UniProt Q13315)
Assay: co-IP

ataxin-1 (from UniProt P54253 1-815)
binding: binds
